Experimental data published in publication doi:10.1101/2022.12.29.522251.
These are yes or no findings as the source states them, for the method shown. Binding seen in cells or lysates may run through a third protein. Some results given as binding are weak or reduced against the parent protein; the word gives no strength.

By UniProt entry, the sequences of proteins in these tests, tags left out.
UniProt Q99496: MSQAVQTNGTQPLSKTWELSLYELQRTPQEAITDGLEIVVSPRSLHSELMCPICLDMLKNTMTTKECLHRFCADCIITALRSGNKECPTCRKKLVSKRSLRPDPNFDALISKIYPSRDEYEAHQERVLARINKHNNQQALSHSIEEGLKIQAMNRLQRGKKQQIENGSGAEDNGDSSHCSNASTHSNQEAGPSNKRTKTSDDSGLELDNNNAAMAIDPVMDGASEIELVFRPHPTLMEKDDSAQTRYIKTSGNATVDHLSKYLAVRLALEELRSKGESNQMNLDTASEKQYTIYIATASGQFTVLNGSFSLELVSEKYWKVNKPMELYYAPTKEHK
UniProt O75626: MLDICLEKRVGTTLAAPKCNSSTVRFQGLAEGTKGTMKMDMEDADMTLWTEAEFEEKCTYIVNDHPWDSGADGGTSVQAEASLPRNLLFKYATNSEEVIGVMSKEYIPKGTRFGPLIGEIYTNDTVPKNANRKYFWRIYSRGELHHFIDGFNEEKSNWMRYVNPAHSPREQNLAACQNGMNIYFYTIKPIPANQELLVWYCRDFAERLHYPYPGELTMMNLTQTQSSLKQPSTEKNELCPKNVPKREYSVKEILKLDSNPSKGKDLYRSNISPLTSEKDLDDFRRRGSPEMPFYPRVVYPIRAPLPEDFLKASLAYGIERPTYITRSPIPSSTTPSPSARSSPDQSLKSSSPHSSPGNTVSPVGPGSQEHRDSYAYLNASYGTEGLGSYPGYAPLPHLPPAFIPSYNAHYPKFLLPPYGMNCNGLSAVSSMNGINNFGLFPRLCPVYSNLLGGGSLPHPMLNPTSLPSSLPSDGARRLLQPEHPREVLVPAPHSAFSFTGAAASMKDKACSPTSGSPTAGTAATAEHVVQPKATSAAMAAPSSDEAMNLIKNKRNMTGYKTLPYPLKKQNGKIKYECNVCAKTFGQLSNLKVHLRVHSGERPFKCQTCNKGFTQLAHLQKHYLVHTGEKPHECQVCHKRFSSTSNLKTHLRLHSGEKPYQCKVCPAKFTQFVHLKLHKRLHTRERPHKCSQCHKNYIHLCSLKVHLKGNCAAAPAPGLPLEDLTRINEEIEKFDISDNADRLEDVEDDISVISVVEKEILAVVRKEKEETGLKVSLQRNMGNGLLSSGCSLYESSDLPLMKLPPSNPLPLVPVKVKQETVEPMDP
UniProt Q01860: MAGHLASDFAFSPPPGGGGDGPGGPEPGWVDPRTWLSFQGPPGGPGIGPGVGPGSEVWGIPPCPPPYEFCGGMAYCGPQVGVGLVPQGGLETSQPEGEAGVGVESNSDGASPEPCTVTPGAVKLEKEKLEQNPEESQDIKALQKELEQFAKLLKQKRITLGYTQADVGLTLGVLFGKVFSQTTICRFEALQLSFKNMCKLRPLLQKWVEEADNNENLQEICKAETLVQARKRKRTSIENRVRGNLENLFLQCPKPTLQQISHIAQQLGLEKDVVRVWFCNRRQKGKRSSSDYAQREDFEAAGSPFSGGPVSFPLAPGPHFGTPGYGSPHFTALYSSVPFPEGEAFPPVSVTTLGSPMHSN

T1: PRDM14 (human (endogenous in hPSCs)) (UniProt Q9GZV8)
T1 sequence: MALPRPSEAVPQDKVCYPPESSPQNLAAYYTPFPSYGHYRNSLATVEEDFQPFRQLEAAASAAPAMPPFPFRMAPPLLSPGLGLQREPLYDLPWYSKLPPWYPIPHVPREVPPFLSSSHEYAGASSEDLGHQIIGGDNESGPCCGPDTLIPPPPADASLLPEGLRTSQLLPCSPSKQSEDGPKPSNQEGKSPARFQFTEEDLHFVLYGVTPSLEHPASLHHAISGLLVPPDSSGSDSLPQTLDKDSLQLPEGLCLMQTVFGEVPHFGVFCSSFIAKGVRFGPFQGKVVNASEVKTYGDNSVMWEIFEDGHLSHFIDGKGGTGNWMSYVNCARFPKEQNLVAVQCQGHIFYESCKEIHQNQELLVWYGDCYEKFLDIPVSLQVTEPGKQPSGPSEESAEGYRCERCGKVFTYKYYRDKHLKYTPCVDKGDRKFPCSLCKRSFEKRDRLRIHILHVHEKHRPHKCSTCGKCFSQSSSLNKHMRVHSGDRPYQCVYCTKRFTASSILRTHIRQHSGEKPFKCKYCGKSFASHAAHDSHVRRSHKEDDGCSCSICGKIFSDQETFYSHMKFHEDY

T2: RYBP (human (endogenous in hPSC-derived foregut cells)) (UniProt Q8N488)
T2 sequence: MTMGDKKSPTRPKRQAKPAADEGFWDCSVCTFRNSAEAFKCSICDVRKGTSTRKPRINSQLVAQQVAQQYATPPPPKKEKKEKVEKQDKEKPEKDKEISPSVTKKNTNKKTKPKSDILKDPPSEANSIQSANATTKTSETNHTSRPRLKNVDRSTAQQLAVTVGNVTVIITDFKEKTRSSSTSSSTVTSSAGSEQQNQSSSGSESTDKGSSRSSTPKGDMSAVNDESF


Legend:
Assay in all cases: co-IP
[1] = biological target: T1, PRDM14 (human (endogenous in hPSCs))
[2] = biological target: RING1B/RNF2 (human (endogenous in hPSCs and hPSC-derived foregut cells)) (UniProt Q99496)
[3] = biological target: T2, RYBP (human (endogenous in hPSC-derived foregut cells))
[4] = biological target: PR domain zinc finger 1 (PRDM1) (human (endogenous in hPSC-derived foregut cells)) (UniProt O75626)

| Molecule | binding [2] | also measured |
| --- | --- | --- |
| OCT4 (encoded by POU5F1) (from UniProt Q01860 1-360) | – | binding [1]: binds |
| OCT4 (encoded by POU5F1) (from UniProt Q01860 1-360) (other; other documents disagree on this pair) | binds | – |
| PR domain zinc finger 1 (PRDM1) (from UniProt O75626 1-825) | – | binding [3]: binds |
| FOXA2 (protein, UniProt Q9Y261 1-457) MLGAVKMEGHEPSDWSSYYAEPEGYSSVSNMNAGLGMNGMNTYMSMSAAAMGSGSGNMSAGSMNMSSYVGAGMSPSLAGMSPGAGAMAGMGGSAGAAGVAGMGPHLSPSLSPLGGQAAGAMGGLAPYANMNSMSPMYGQAGLSRARDPKTYRRSYTHAKPPYSYISLITMAIQQSPNKMLTLSEIYQWIMDLFPFYRQNQQRWQNSIRHSLSFNDCFLKVPRSPDKPGKGSFWTLHPDSGNMFENGCYLRRQKRFKCEKQLALKEAAGAAGSGKKAAAGAQASQAQLGEAAGPASETPAGTESPHSSASPCQEHKRGGLGELKGTPAAALSPPEPAPSPGQQQQAAAHLLGPPHHPGLPPEAHLKPEHHYAFNHPFSINNLMSSEQQHHHSHHHHQPHKMDLKAYEQVMHYPGYGSPMPGSLAMGPVTNKTGLDASPLAADTSYYQGVYSRPIMNSS | binds | binding [4]: binds |
| PRDM14 (protein, UniProt Q9GZV8 1-571) MALPRPSEAVPQDKVCYPPESSPQNLAAYYTPFPSYGHYRNSLATVEEDFQPFRQLEAAASAAPAMPPFPFRMAPPLLSPGLGLQREPLYDLPWYSKLPPWYPIPHVPREVPPFLSSSHEYAGASSEDLGHQIIGGDNESGPCCGPDTLIPPPPADASLLPEGLRTSQLLPCSPSKQSEDGPKPSNQEGKSPARFQFTEEDLHFVLYGVTPSLEHPASLHHAISGLLVPPDSSGSDSLPQTLDKDSLQLPEGLCLMQTVFGEVPHFGVFCSSFIAKGVRFGPFQGKVVNASEVKTYGDNSVMWEIFEDGHLSHFIDGKGGTGNWMSYVNCARFPKEQNLVAVQCQGHIFYESCKEIHQNQELLVWYGDCYEKFLDIPVSLQVTEPGKQPSGPSEESAEGYRCERCGKVFTYKYYRDKHLKYTPCVDKGDRKFPCSLCKRSFEKRDRLRIHILHVHEKHRPHKCSTCGKCFSQSSSLNKHMRVHSGDRPYQCVYCTKRFTASSILRTHIRQHSGEKPFKCKYCGKSFASHAAHDSHVRRSHKEDDGCSCSICGKIFSDQETFYSHMKFHEDY | binds | – |
